# Laboratory results published in the supplement of paper PMC8728848.
# This is one part of the list.
# B1: EUL D1A (Oryza sativa) (protein)
# chain: MFGFGHHHNQAPAAPSDPNQIFKIFCRANENYCLTVRDSAVVLAPVNPKDEHQHWFKDMRFSTKVKDGEGMPAFALVNKATGLAVKHSLGQSHPVKLVPFNPEYEDASVLWTESKDVGKGFRCIRMVNNTRLNLDAFHGDKDHGGVRDGTTVVLWEWCKGDNQSWKILPWGPEAHSSSPGAATACTIGGVPVHTVRVFSAAGEDYCLTVRNGTACLAPKNPRDDYQHWIKDMRHSNKIRDEEGYPAFALVNKVTGEAIKHSTGQGHPVKLVPYNPEYQDESVLWTESKDVGKGFRCIRMVNNIYLNFDAFHGDKDHGGIHDGTEIVLWKWCEGDNQRWKILPWILEQKLISEEDLNSAVDHHHHHH
# Assays:
# Test in all cases: glycan array binding signal (z-score within array); higher = stronger binding
# Conditions in all cases: glycan notation: IUPAC condensed, linker removed
# [1] = target: Neu5Ac(a2-6)Gal(b1-4)GlcNAc(b1-6)GalNAc
# Procedure, shortened: (§1)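 Columns mapping to the same glycan were averaged after glycan names were converted to IUPAC-condensed notation. The data come from 3228 arrays in the Consortium for Functional Glycomics database, limited to those with an available protein sequence. Binding is reported as a within-array Z-score averaged across arrays of one protein sequence and across linkers.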
# [2] = target: Neu5Ac(a2-6)Gal(b1-4)GlcNAc(b1-6)[Gal(b1-3)GlcNAc(b1-3)]Gal(b1-4)Glc
# Procedure, shortened: as §1
# [3] = target: Neu5Ac(a2-6)Gal(b1-4)GlcNAc(b1-6)[Gal(b1-3)]GalNAc
# Procedure, shortened: as §1
# [4] = target: Neu5Ac(a2-6)Gal(b1-4)GlcNAc6S
# Procedure, shortened: as §1
# Neu5Ac(a2-6)GalNAc = target: Neu5Ac(a2-6)GalNAc
# Procedure, shortened: as §1
# [5] = target: Neu5Ac(a2-6)GalNAc(b1-4)GlcNAc
# Procedure, shortened: as §1
# [6] = target: Neu5Ac(a2-6)GalNAc(b1-4)GlcNAc6S
# Procedure, shortened: as §1
# [7] = target: Neu5Ac(a2-6)GlcNAc(b1-4)GlcNAc
# Procedure, shortened: as §1
# [8] = target: Neu5Ac(a2-6)GlcNAc(b1-4)GlcNAc(b1-4)GlcNAc
# Procedure, shortened: as §1
# Neu5Ac(a2-8)Neu5Ac = target: Neu5Ac(a2-8)Neu5Ac
# Procedure, shortened: as §1
# [9] = target: Neu5Ac(a2-8)Neu5Ac(a2-3)Gal(b1-3)GalNAc(b1-4)[Neu5Ac(a2-3)]Gal(b1-4)Glc
# Procedure, shortened: as §1
# [10] = target: Neu5Ac(a2-8)Neu5Ac(a2-3)Gal(b1-3)GalNAc(b1-4)[Neu5Ac(a2-8)Neu5Ac(a2-3)]Gal(b1-4)Glc
# Procedure, shortened: as §1
# [11] = target: Neu5Ac(a2-8)Neu5Ac(a2-3)Gal(b1-4)Glc
# Procedure, shortened: as §1
# [12] = target: Neu5Ac(a2-8)Neu5Ac(a2-3)Gal(b1-4)GlcNAc
# Procedure, shortened: as §1
# [13] = target: Neu5Ac(a2-8)Neu5Ac(a2-3)[Gal(b1-3)GalNAc(b1-4)]Gal(b1-4)Glc
# Procedure, shortened: as §1
# [14] = target: Neu5Ac(a2-8)Neu5Ac(a2-3)[GalNAc(b1-4)]Gal(b1-4)Glc
# Procedure, shortened: as §1
# [15] = target: Neu5Ac(a2-8)Neu5Ac(a2-8)Neu5Ac
# Procedure, shortened: as §1
# [16] = target: Neu5Ac(a2-8)Neu5Ac(a2-8)Neu5Ac(a2-3)Gal(b1-4)Glc
# Procedure, shortened: as §1
# [17] = target: Neu5Ac(a2-8)Neu5Ac(a2-8)Neu5Ac(a2-3)[Gal(b1-3)GalNAc(b1-4)]Gal(b1-4)Glc
# Procedure, shortened: as §1
# [18] = target: Neu5Ac(a2-8)Neu5Ac(a2-8)Neu5Ac(a2-3)[GalNAc(b1-4)]Gal(b1-4)Glc
# Procedure, shortened: as §1
# [19] = target: Neu5Ac(a2-8)Neu5Ac(a2-8)Neu5Ac(a2-8)Neu5Ac(a2-3)[GalNAc(b1-4)]Gal(b1-4)Glc
# Procedure, shortened: as §1
# [20] = target: Neu5Ac(a2-8)Neu5Gc(a2-3)Gal(b1-4)GlcNAc
# Procedure, shortened: as §1
# [21] = target: Neu5Ac(b2-6)Gal(b1-4)GlcNAc
# Procedure, shortened: as §1
# Neu5Ac(b2-6)GalNAc = target: Neu5Ac(b2-6)GalNAc
# Procedure, shortened: as §1
# [22] = target: Neu5Ac9Ac(a2-3)Gal(b1-3)GlcNAc
# Procedure, shortened: as §1
# [23] = target: Neu5Ac9Ac(a2-3)Gal(b1-4)GlcNAc
# Procedure, shortened: as §1
# [24] = target: Neu5Ac9Ac(a2-6)Gal(b1-4)GlcNAc
# Procedure, shortened: as §1
# [25] = target: Neu5Gc(a2-3)Gal(b1-3)GlcNAc
# Procedure, shortened: as §1
# [26] = target: Neu5Gc(a2-3)Gal(b1-3)[Fuc(a1-4)]GlcNAc
# Procedure, shortened: as §1
# Neu5Gc(a2-3)Gal(b1-4)Glc = target: Neu5Gc(a2-3)Gal(b1-4)Glc
# Procedure, shortened: as §1
# [27] = target: Neu5Gc(a2-3)Gal(b1-4)GlcNAc
# Procedure, shortened: as §1
# [28] = target: Neu5Gc(a2-3)Gal(b1-4)GlcNAc(b1-3)Gal(b1-4)GlcNAc(b1-2)Man(a1-3)[Neu5Gc(a2-3)Gal(b1-4)GlcNAc(b1-3)Gal(b1-4)GlcNAc(b1-2)Man(a1-6)]Man(b1-4)GlcNAc(b1-4)GlcNAc
# Procedure, shortened: as §1
# [29] = target: Neu5Gc(a2-3)Gal(b1-4)[Fuc(a1-3)]GlcNAc
# Procedure, shortened: as §1
# [30] = target: Neu5Gc(a2-6)Gal(b1-4)GlcNAc
# Procedure, shortened: as §1
# Neu5Gc(a2-6)GalNAc = target: Neu5Gc(a2-6)GalNAc
# Procedure, shortened: as §1
# [31] = target: Neu5Gc(a2-8)Neu5Ac(a2-3)Gal(b1-4)GlcNAc
# Procedure, shortened: as §1
# [32] = target: Neu5Gc(a2-8)Neu5Gc(a2-3)Gal(b1-4)GlcNAc
# Procedure, shortened: as §1
# [33] = target: Neu5Gc(a2-8)Neu5Gc(a2-3)Gal(b1-4)GlcNAc(b1-3)Gal(b1-4)GlcNAc
# Procedure, shortened: as §1
binder,measurement,setting,value
B1,glycan array binding signal (z-score),[1],-0.263
same,glycan array binding signal (z-score),[2],-0.493
same,glycan array binding signal (z-score),[3],-0.319
same,glycan array binding signal (z-score),[4],-1.56
same,glycan array binding signal (z-score),Neu5Ac(a2-6)GalNAc,-1.24
same,glycan array binding signal (z-score),[5],-0.999
same,glycan array binding signal (z-score),[6],-0.749
same,glycan array binding signal (z-score),[7],0.693
same,glycan array binding signal (z-score),[8],0.367
same,glycan array binding signal (z-score),Neu5Ac(a2-8)Neu5Ac,-0.372
same,glycan array binding signal (z-score),[9],0.031
same,glycan array binding signal (z-score),[10],0.293
same,glycan array binding signal (z-score),[11],-0.574
same,glycan array binding signal (z-score),[12],-1.34
same,glycan array binding signal (z-score),[13],0.472
same,glycan array binding signal (z-score),[14],-0.676
same,glycan array binding signal (z-score),[15],0.425
same,glycan array binding signal (z-score),[16],-0.708
same,glycan array binding signal (z-score),[17],-0.062
same,glycan array binding signal (z-score),[18],-0.685
same,glycan array binding signal (z-score),[19],-1.03
same,glycan array binding signal (z-score),[20],0.146
same,glycan array binding signal (z-score),[21],1.65
same,glycan array binding signal (z-score),Neu5Ac(b2-6)GalNAc,-0.626
same,glycan array binding signal (z-score),[22],-0.59
same,glycan array binding signal (z-score),[23],0.165
same,glycan array binding signal (z-score),[24],-0.088
same,glycan array binding signal (z-score),[25],-1.27
same,glycan array binding signal (z-score),[26],0.008
same,glycan array binding signal (z-score),Neu5Gc(a2-3)Gal(b1-4)Glc,-0.225
same,glycan array binding signal (z-score),[27],-0.051
same,glycan array binding signal (z-score),[28],-0.325
same,glycan array binding signal (z-score),[29],0.11
same,glycan array binding signal (z-score),[30],-1.39
same,glycan array binding signal (z-score),Neu5Gc(a2-6)GalNAc,-0.944
same,glycan array binding signal (z-score),[31],-0.726
same,glycan array binding signal (z-score),[32],0.404
same,glycan array binding signal (z-score),[33],-0.888
